These results are taken from article PMC7910451.

Results are given in words; binding and its absence hold for the method and conditions named. Binding seen in cells or lysates may run through a third protein. Some entries that bind do so weakly or less than the wild type. Tags and fused reporters may be left off the sequences shown.

In this test the target is FLAG-tagged Beclin1, Q14457. In words: co-IP; HK-2 cells with HA-SIRT1 and FLAG-Beclin1, with LPS stimulation; anti-FLAG, protein A + G agarose beads, overnight at 4 °C; blot anti-HA. As to conditions: remark: other sources report otherwise.

B1: HA-tagged SIRT1, Q96EB6 1-747 (enzyme)
chain: MADEAALALQPGGSPSAAGADREAASSPAGEPLRKRPRRDGPGLERSPGEPGGAAPEREVPAAARGCPGAAAAALWREAEAEAAAAGGEQEAQATAAAGEGDNGPGLQGPSREPPLADNLYDEDDDDEGEEEEEAAAAAIGYRDNLLFGDEIITNGFHSCESDEEDRASHASSSDWTPRPRIGPYTFVQQHLMIGTDPRTILKDLLPETIPPPELDDMTLWQIVINILSEPPKRKKRKDINTIEDAVKLLQECKKIIVLTGAGVSVSCGIPDFRSRDGIYARLAVDFPDLPDPQAMFDIEYFRKDPRPFFKFAKEIYPGQFQPSLCHKFIALSDKEGKLLRNYTQNIDTLEQVAGIQRIIQCHGSFATASCLICKYKVDCEAVRGDIFNQVVPRCPRCPADEPLAIMKPEIVFFGENLPEQFHRAMKYDKDEVDLLIVIGSSLKVRPVALIPSSIPHEVPQILINREPLPHLHFDVELLGDCDVIINELCHRLGGEYAKLCCNPVKLSEITEKPPRTQKELAYLSELPPTPLHVSEDSSSPERTSPPDSSVIVTLLDQAAKSNDDLDVSESKGCMEEKPQEVQTSRNVESIAEQMENPDLKNVGSSTGEKNERTSVAGTVRKCWPNRVAKEQISRRLDGNQYLFLPPNRYIFHGAEVYSDSEDDVLSSSSCGSNSDSGTCQSPSLEEPMEDESEIEEFYNGLEDEPDVPERAGGAGFGTDGDDQEAINEAISVKQEVTDMNYPSNKS
Regarding B1, the binding result is listed as “binds”.
